# In all, about 33,000 sequences were measured (“E-score (-0.5 to 0.5)”: median about -0.0034, highest 2% from about 0.25 on). The list shows a part of the results.
# Target: T1, Yap3 (UniProt P38749)
# T1 sequence: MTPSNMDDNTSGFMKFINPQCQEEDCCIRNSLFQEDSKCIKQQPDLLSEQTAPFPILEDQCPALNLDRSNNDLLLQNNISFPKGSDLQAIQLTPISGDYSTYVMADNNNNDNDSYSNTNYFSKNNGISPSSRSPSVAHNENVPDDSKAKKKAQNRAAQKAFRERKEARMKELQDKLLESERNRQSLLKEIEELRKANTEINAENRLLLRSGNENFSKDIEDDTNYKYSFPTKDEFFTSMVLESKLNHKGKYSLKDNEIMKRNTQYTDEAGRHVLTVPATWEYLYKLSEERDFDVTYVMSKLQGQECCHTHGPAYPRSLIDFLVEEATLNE
# Assay: PBM E-score (8-mer binding enrichment) (E-score (-0.5 to 0.5)); higher = stronger / more preferred TF binding
# Details: protein concentration: 100 nM; construct: GST-full length
# Experimental: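 Universal 'all 10-mer' protein binding microarrays (Agilent AMADID 015681) probed with GST-tagged S. cerevisiae TFs (full-length or DBD) made by in vitro transcription/translation (PURExpress), about 100-200 nM. Bound TF was detected with fluorescent anti-GST. Each ungapped 8-mer (which stands for itself and its reverse complement) is scored by the PBM enrichment score (E-score), a modified Wilcoxon-Mann-Whitney statistic from -0.5 to +0.5, computed with the Universal PBM Analysis Suite. Scale: above 0.35 generally sequence-specific binding.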
row,Sequence,PBM E-score
1,TAGCGGCA,-0.117
2,GGGAGGAA,-0.13
3,ATAAGCAC,0.0902
4,CATATAGG,-0.0735
5,TACTGACA,0.222
6,CTCTATAA,0.0647
7,ACTGTGAT,0.0589
8,ACCGGCGA,0.0051
9,GGCCAATA,0.034
10,ACATCATC,0.174
11,CTGGGTGC,-0.276
12,AAACTATC,0.0222
13,ACCGTACA,0.0667
14,GAAGATGA,0.00217
15,GAGAGCTA,0.00545
16,AACGACGA,0.0497
17,CTGACTAC,-0.0607
18,ACTAAACG,0.111
19,GTACGCCA,-0.112
20,GTGATCGA,0.282
21,CGGTCTTC,-0.139
22,GGAGTATA,0.0361
23,CCGGACAA,-0.00432
24,AACGCGGC,0.0716
25,GACCTCCA,-0.225

row,Sequence,PBM E-score
1,TCCGGCGA,0.0592
2,GTCCCTTA,0.179
3,TGGTGCAA,0.0067
4,ATTGGCCA,0.0449
5,GGAAAGCC,-0.0527
6,ATGAATGA,0.106
7,CCCATGAG,-0.0304
8,GTTCTGGA,0.0684
9,AATTTGGT,0.173
10,ATGCTCCG,-0.142
11,ACCACCCA,-0.0418
12,AGACTTAC,-0.0295
13,TCAAGGAA,-0.0142
14,TCCCGAAA,0.0359
15,AATCGCCA,-0.0296
16,AGTGGTAT,0.0856
17,ACAAGTAT,0.184
18,AAGAGTGC,-0.0219
19,ACACAACA,-0.0291
20,AATGTTTC,0.126
21,AATGGATG,0.123
22,ACAGGTAA,0.036
23,TACGAGTA,0.141
24,ACCCACGA,-0.0242
25,GAGTCCGA,0.112

row,Sequence,PBM E-score
1,GCCTAAGA,-0.134
2,GTGACTAA,0.262
3,GGCGAGTA,0.0731
4,GAGGCTGA,-0.15
5,ATATCTCA,0.268
6,GGAGTCTA,-0.176
7,ATCCTTAA,0.0228
8,CCGAGGTC,-0.101
9,AAGTAAGC,-0.0645
10,TCTCCTCA,-0.0196
11,ATCACCCG,0.035
12,CGATTGGC,0.033
13,CTTCCCAA,0.0527
14,GTGGGGGA,-0.149
15,GATATAAC,0.0853
16,ACCTTTCG,-0.048
17,ATTATTTG,0.197
18,CTCGTCCC,-0.161
19,CTCCAGCC,-0.253
20,AATGTCAC,0.0913
21,CGCTTTAA,0.108
22,GTCTCTGA,-0.158
23,ACATAGCT,-0.104
24,ATTCTGTC,0.0978
25,ATAAACTA,0.151

row,Sequence,PBM E-score
1,CGAAGGAG,-0.133
2,ACGAGTCG,-0.0603
3,CGTAACAA,0.174
4,ACATGGCC,0.0939
5,ACAACCTA,0.0482
6,TTGACCAA,0.0369
7,ACAACCGT,-0.187
8,GAGAGACC,-0.195
9,TACATCTA,0.081
10,ACTCGAAA,-0.0406
11,ACGTCCGC,0.0414
12,ACTACGGC,-0.0822
13,CGACGTTA,0.138
14,CTCTTTAC,0.0471
15,ACTTGACA,-0.108
16,GACGCGGC,-0.0163
17,CAAGCGGC,0.00049
18,GCTATTAA,0.103
19,GGAATACC,0.0209
20,AGAAAACC,-0.0178
21,CCCGGTCA,-0.114
22,GCACATGA,-0.103
23,GTTGTCAA,0.0335
24,ACCATTAG,-0.0299
25,GTAATACA,0.273

row,Sequence,PBM E-score
1,ATATTGAC,0.069
2,AAGCCCCT,-0.282
3,TCACTTAA,0.252
4,ATCCGGTG,0.139
5,CATGGCCC,-0.186
6,CCGTATAC,-0.0052
7,CCGAGACA,-0.131
8,AAGCGCTT,0.321
9,CTATAGCC,-0.267
10,CGGTGCAC,-0.127
11,ACTATTCA,0.191
12,CTTATGTC,0.0347
13,CGGTTCCC,-0.175
14,GGGACAAA,-0.0131
15,CTCCAGAC,-0.195
16,CAACCGCC,-0.103
17,TAGGTTAA,0.0719
18,TCCGTTAA,0.115
19,AAATGATA,0.275
20,ATGTAAAT,0.192
21,CTGTCCGC,-0.0179
22,TGATAGCA,0.176
23,ATACACGG,0.105
24,AGCGGATG,-0.121
25,GACTTTCA,0.0935

# Some of the entries so far, tab-delimited:
row	Sequence	PBM E-score
14	CTCTTTAC	0.0471
15	ACTTGACA	-0.108
16	GACGCGGC	-0.0163
17	CAAGCGGC	0.00049
18	GCTATTAA	0.103
19	GGAATACC	0.0209
20	AGAAAACC	-0.0178

# Carrying on.

row,Sequence,PBM E-score
1,GACAACCC,-0.11
2,CACGATCC,-0.0939
3,AGAGCTAC,-0.0188
4,ATTCAGAA,0.0683
5,CGGCACTC,-0.217
6,CCGAAGGA,-0.177
7,CTAATTAG,0.347
8,GCACAAGC,-0.0462
9,AGGGGCCC,-0.157
10,ACAAAAGT,0.0482
11,TAAAGGCA,0.126
12,AAGGGACG,-0.0997
13,GGGAATCA,-0.0365
14,CAAAGCCG,-0.00668
15,ACTTGATG,-0.0189
16,ACAAAATC,0.181
17,CGAGTAGA,-0.0433
18,CGCTAGGA,-0.0382
19,ACCTGCGT,-0.153
20,ATCAGTCC,-0.328
21,GGGTTGAA,-0.022
22,CGCATACG,-0.0601
23,CCTTAAGG,0.0219
24,GGCCTTTA,-0.0858
25,GTGGCCAA,0.0887

# Copied from the list.
# PBM E-score with CTCCAGCC reads -0.253
# PBM E-score with AGCGGATG reads -0.121

# (further entries)

row,Sequence,PBM E-score
1,AACCACAT,0.175
2,GAAGTAGC,-0.0115
3,GATGGGGA,-0.0817
4,AGATCAAG,0.0648
5,AAGGTTCG,-0.129
6,GTTGGCAA,-0.0255
7,TAGAGTAA,0.119
8,CAAAGTCC,-0.0777
9,TATGTGAA,0.0273
10,GCCTAACC,-0.151
11,CCAGGTAC,-0.176
12,AACCTGCC,-0.101
13,CGGAGAAA,0.0609
14,CAGCAGAC,-0.0288
15,CAGCGCCG,-0.151
16,CCCCTTCG,-0.378
17,GCACATAA,0.131
18,CCAGGTAA,-0.0346
19,AACTAATA,0.342
20,CCGTGTCC,-0.0326
21,ACGTATCA,0.137
22,CCAACAGA,0.0551
23,GCTAGGAA,-0.0771
24,AGTGCTCG,-0.11
25,CCTACGCG,0.016

row,Sequence,PBM E-score
1,ACACCGCT,-0.145
2,CGGGTTTA,0.169
3,AGCGGGGA,-0.102
4,ATCTCGAG,0.0454
5,GGGCTAAA,-0.0125
6,CATTCTAG,-0.0724
7,CAGAAAAA,0.0388
8,CACCTACC,-0.119
9,AGAGGCGA,-0.00469
10,CAACGGTC,-0.137
11,ACACGTAC,0.0592
12,GAGCAATC,-0.0416
13,GGAGGCCA,-0.309
14,ACCTTCTA,0.116
15,GCCCCATA,-0.0177
16,AGAGGCAA,0.0405
17,GCTTGGAA,0.0266
18,AGGTAATG,0.0748
19,AATTTAAA,0.171
20,ACGACCAA,-0.0655
21,CTCGTGAC,-0.0978
22,CCTATGCA,0.116
23,AAATTTCT,-0.00302
24,CCTGGCCG,-0.168
25,GGACCTAC,-0.124

row,Sequence,PBM E-score
1,CACAGAGG,-0.168
2,ACACTTCG,0.159
3,CGGGGTAA,0.0457
4,CCATCCAA,-0.106
5,CATTCGGA,0.143
6,ACAATTTC,0.177
7,ATCTGCCG,0.101
8,TCTCGCCA,0.0242
9,CCACACGC,0.0282
10,GACCACGC,-0.0763
11,CTGGTAGA,0.0643
12,CGTGCTAC,-0.185
13,ACCTGGTC,-0.115
14,CAAGTAAA,0.162
15,CGTTGTTC,0.0743
16,ACAGAGGT,-0.0174
17,CTTAGAGC,-0.0124
18,AGCTTCCA,-0.0552
19,ACAGGCCT,-0.0323

# Source: the supplement of paper PMC3334620
